According to the supplement of paper PMC8866396:
Values joined by “and” are separate entries in the source; they are usually repeats but may differ in a detail not shown here. Equal values may be shown once. ± gives the standard deviation of the averaged measurements. Some of the results follow. Single values are uncertain here, since repeats match poorly.

Columns and labels:
[1] = test system: IL-6-GFP PC-9GR; assay: IL-6-GFP fluorescence relative to DMSO control (fraction of control); higher = more IL-6-GFP expression; conditions: compound concentration: 10 uM; treatment time: 48 h
Protocol: (§1)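 IL-6-GFP-overexpressing PC-9 and PC-9GR EGFR-mutant lung cancer cells (3000 cells/well, 96-well) were treated for 48 h with each compound of the Selleck L2000 library at 10 uM. IL-6-GFP fluorescence was read on a high-content screening system, and viability by CCK-8 absorbance on a parallel plate set. Each value was normalised as compound well / DMSO control well; two independent replicates.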

[2] = test system: IL-6-GFP PC-9; assay: as above; conditions: compound concentration: 10 uM; treatment time: 48 h
Protocol: as §1

SMILES	IL-6-GFP fluorescence [1]	IL-6-GFP fluorescence [2]
NC(CO)(CO)CO [Trometamol]	0.692 ± 0.019	0.885 ± 0.046
Oc1ccc(/C=C/c2cc(O)cc(O)c2)cc1 [Resveratrol]	0.927 ± 0.045	0.9 ± 0.071
COc1cc(C2Oc3cc(C4Oc5cc(O)cc(O)c5C(=O)C4O)ccc3OC2CO)ccc1O (centres undefined) [Silibinin]	0.719 ± 0.34	0.738 ± 0.15
CCCCOc1ccc(C(=O)CCN2CCCCC2)cc1.Cl [Dyclonine HCl]	0.827 ± 0.21	0.844 ± 0.22
Nc1cccc2c1C(=O)N(C1CCC(=O)NC1=O)C2=O (centres undefined) [Pomalidomide]	1.575 ± 0.0085	1.89 ± 0.45
CC(=O)OC12COC1CC(O)C1(C)C(=O)C(O)C3=C(C)C(OC(=O)C(O)C(NC(=O)OC(C)(C)C)c4ccccc4)CC(O)(C(OC(=O)c4ccccc4)C21)C3(C)C.O.O.O (centres undefined) [Docetaxel Trihydrate]	1.15 ± 0.38	1.007 ± 0.0082
CC1CC2C3CC(F)C4=CC(=O)C=CC4(C)C3(F)C(O)CC2(C)C1(OC(=O)c1ccco1)C(=O)SCF (centres undefined) [fluticasone furoate]	0.718 ± 0.049	0.908 ± 0.27
CN(C)C(=O)c1cc2cnc(Nc3ccc(N4CCNCC4)cn3)nc2n1C1CCCC1 [Ribociclib (LEE011)]	1.02 ± 0.057	1.05 ± 0.13
CN(Cc1cnc2nc(N)nc(N)c2n1)c1ccc(C(=O)NC(CCC(=O)O)C(=O)O)cc1 (centres undefined) [Methotrexate]	0.997 ± 0.041	0.93 ± 0.016
Nc1cc(C(Cl)=C(Cl)Cl)c(S(N)(=O)=O)cc1S(N)(=O)=O [Clorsulon]	1.11 ± 0.23	0.972 ± 0.32
CC1=C(/C=C/C(C)=C/C=C/C(C)=C/C(=O)O)C(C)(C)CCC1 [Tretinoin]	0.811 ± 0.24	0.918 ± 0.16
CC(OCC1(c2ccccc2)CCC2(CCC(=O)N2)CN1)c1cc(C(F)(F)F)cc(C(F)(F)F)c1 (centres undefined) [Rolapitant]	0.897 ± 0.15	0.913 ± 0.15
C1N2CN3CN1CN(C2)C3 [Methenamine]	0.826 ± 0.15	1.56 ± 0.9
Cl.NC1=NCC2c3ccccc3Cc3ccccc3N12 (centres undefined) [Epinastine HCl]	0.579 ± 0.23	0.948 ± 0.048
N#CCC(C1CCCC1)n1cc(-c2ncnc3[nH]ccc23)cn1 (centres undefined)	0.831 and 0.868	1.01 and 1.06
COC(=O)C(Cc1ccccc1)NC(=O)C(N)CC(=O)O (centres undefined) [Aspartame]	0.586 ± 0.28	0.8025 ± 0.0049
CN1C(C(=O)Nc2ccccn2)=C(O)c2sccc2S1(=O)=O [Tenoxicam]	0.868 ± 0.2	0.666 ± 0.041
CC(C)Cc1ccc(C(C)C(=O)O)cc1 (centres undefined) [Ibuprofen]	0.633 ± 0.21	0.85 ± 0.26
CCCCCCNC(=O)n1cc(F)c(=O)[nH]c1=O [Carmofur]	1.052 ± 0.002	0.741 ± 0.29
CCOC(=O)C(CCc1ccccc1)NC1CSC(c2cccs2)CN(CC(=O)O)C1=O (centres undefined) [Temocapril]	1.09 ± 0.26	1.01 ± 0.04
CC(C(=O)O)c1ccc2c(c1)[nH]c1ccc(Cl)cc12 (centres undefined) [Carprofen]	0.507 ± 0.45	1.04 ± 0.082
O=C(O)CCCCC1CCSS1 (stereo not drawn) [(+)-α-Lipoic acid]	0.531 ± 0.22	0.893 ± 0.028
COc1cc2c3cc1Oc1c(OC)c(OC)cc4c1C(Cc1ccc(O)c(c1)Oc1ccc(cc1)CC3N(C)CC2)N(C)CC4.Cl.Cl (centres undefined) [Berbamine (dihydrochloride)]	0.951 ± 0.045	0.821 ± 0.24
CCC1/C=C(\C)CC(C)CC(OC)C2OC(O)(C(=O)C(=O)N3CCCCC3C(=O)OC(/C(C)=C/C3CCC(Cl)C(OC)C3)C(C)C(O)CC1=O)C(C)CC2OC (centres undefined) [Pimecrolimus]	0.998 ± 0.14	0.781 ± 0.093
O=C(O)c1ccccc1OP(=O)(O)O [Fosfosal]	0.85 ± 0.096	0.83 ± 0.062
CCS(=O)(=O)N1CC(CC#N)(n2cc(-c3ncnc4[nH]ccc34)cn2)C1.O=P(O)(O)O [Baricitinib phosphate]	0.824 ± 0.059	0.961 ± 0.034

SMILES	IL-6-GFP fluorescence [1]	IL-6-GFP fluorescence [2]
Cl.Cl.Cl.Cl.Cl.Cl.Cl.Cl.c1cc(CN2CCCNCCNCCCNCC2)ccc1CN1CCCNCCNCCCNCC1 [Plerixafor 8HCl (AMD3100 8HCl)]	0.814 ± 0.19	0.824 ± 0.12
Cc1ccc(Nc2nccc(N(C)c3ccc4c(C)n(C)nc4c3)n2)cc1S(N)(=O)=O [Pazopanib]	0.974 ± 0.033	0.957 ± 0.038
C/C=C1/C2C=C(C)CC1(N)c1ccc(=O)[nH]c1C2 (single isomer, unassigned; (-)) [(-)-Huperzine A (HupA)]	0.672 ± 0.11	1.06 ± 0.44
CC(=O)OC1CCC2(C)C(CCC3(C)C2C(=O)C=C2C4C(C)C(C)CCC4(C)CCC23C)C1(C)C(=O)O (centres undefined)	0.905 ± 0.025	0.881 ± 0.08
CC(=O)Nc1cccc(-n2c(=O)n(C3CC3)c(=O)c3c(Nc4ccc(I)cc4F)n(C)c(=O)c(C)c32)c1	0.977 ± 0.065	0.847 ± 0.2
COC1CC2CCC(C)C(O)(O2)C(=O)C(=O)N2CCCCC2C(=O)OC(C(C)CC2CCC(OC(=O)C(C)(CO)CO)C(OC)C2)CC(=O)C(C)/C=C(\C)C(O)C(OC)C(=O)C(C)CC(C)/C=C/C=C/C=C/1C (centres undefined)	1.16 ± 0.19	0.91 ± 0.079
CCc1cccc2c3c([nH]c12)C(CC)(CC(=O)O)OCC3 (centres undefined) [Etodolac]	1.12 ± 0.028	1.1 ± 0.25
C/C=C(/C)C(=O)OC1C(OC(C)=O)C2(CO)C(O)CC3(C)C(=CCC4C5(C)CCC(OC6OC(C(=O)O)C(OC7OC(CO)C(O)C(O)C7O)C(O)C6OC6OC(CO)C(O)C(O)C6O)C(C)(CO)C5CCC43C)C2CC1(C)C (centres undefined) [Escin]	0.777 ± 0.33	0.915 ± 0.067
CC1(C)OC2CC3C4CC(F)C5=CC(=O)C=CC5(C)C4(F)C(O)CC3(C)C2(C(=O)CO)O1 (centres undefined) [Fluocinolone Acetonide]	0.835 ± 0.14	0.905 ± 0.35
COc1cc2nccc(Oc3ccc(NC(=O)C4(C(=O)Nc5ccc(F)cc5)CC4)cc3)c2cc1OC.O=C(O)CC(O)C(=O)O [Cabozantinib malate (XL184)]	0.65 ± 0.042	0.99 ± 0.13
CC(=O)OC1(C(C)=O)CCC2C3C=C(Cl)C4=CC(=O)C5CC5C4(C)C3CCC21C (centres undefined) [Cyproterone Acetate]	0.77 ± 0.26	0.783 ± 0.013
CC(NCc1ccc(OCc2cccc(F)c2)cc1)C(N)=O.CS(=O)(=O)O (centres undefined) [Safinamide Mesylate]	0.9 ± 0.069	0.904 ± 0.07
CNC(=NC#N)NCCSCc1nc[nH]c1C [Cimetidine]	0.611 ± 0.35	0.863 ± 0.078
C#Cc1cccc(Nc2ncnc3cc4c(cc23)OCCOCCOCCO4)c1 [Icotinib]	1.17 ± 0.48	0.844 ± 0.17
C#Cc1cccc(Nc2ncnc3cc(OCCOC)c(OCCOC)cc23)c1 [Erlotinib]	1.28 ± 0.22	0.958 ± 0.22
O=C(Nc1cnn2ccc(N3CCCC3c3cc(F)ccc3F)nc12)N1CCC(O)C1.O=S(=O)(O)O (centres undefined) [Larotrectinib (LOXO-101) sulfate]	1.06 ± 0.28	0.665 ± 0.37
C=C(NC(=O)C(=C)NC(=O)c1csc(C2=NC3c4csc(n4)C4NC(=O)c5csc(n5)C(C(C)(O)C(C)O)NC(=O)C5CSC(=N5)/C(=C/C)NC(=O)C(C(C)O)NC(=O)c5csc(n5)C3(CC2)NC(=O)C(C)NC(=O)C(=C)NC(=O)C(C)NC(=O)C(C(C)CC)NC2C=Cc3c(C(C)O)cc(nc3C2O)C(=O)OC4C)n1)C(N)=O (centres undefined) [Thiostrepton]	0.678 ± 0.47	1.07 ± 0.19
Nc1ccc(F)cc1NC(=O)c1ccc(CNC(=O)/C=C/c2cccnc2)cc1 [Tucidinostat (Chidamide)]	0.973 ± 0.14	0.94 ± 0.28
CN(C)CCCOc1nn(Cc2ccccc2)c2ccccc12.Cl [Benzydamine HCl]	0.657 ± 0.19	0.809 ± 0.076
COc1ccc2c(c1)nc(S(=O)Cc1ncc(C)c(OC)c1C)[n]2[Na] (centres undefined) [Esomeprazole sodium]	0.799 ± 0.016	0.92 ± 0.21
CNC1CCC(c2ccc(Cl)c(Cl)c2)c2ccccc21.Cl (centres undefined) [Sertraline HCl]	0.766 ± 0.26	1.05 ± 0.11
NC1CN(c2c(F)cc3c(=O)c(C(=O)O)cn(C4CC4F)c3c2Cl)CC12CC2.NC1CN(c2c(F)cc3c(=O)c(C(=O)O)cn(C4CC4F)c3c2Cl)CC12CC2.O.O.O (centres undefined) [Sitafloxacin Hydrate]	0.685 ± 0.27	0.626 ± 0.021
CS(=O)(=O)CCNCc1ccc(-c2ccc3ncnc(Nc4ccc(OCc5cccc(F)c5)c(Cl)c4)c3c2)o1.Cc1ccc(S(=O)(=O)O)cc1.Cc1ccc(S(=O)(=O)O)cc1	2.44 ± 0.42	1.35 ± 0.039
C#Cc1cccc(Nc2ncnc3cc(OCCOC)c(OCCOC)cc23)c1.Cl [Erlotinib HCl (OSI-744)]	0.833 ± 0.089	0.799 ± 0.021
Cc1cccc(N(C)C(=S)Oc2ccc3ccccc3c2)c1 [Tolnaftate]	0.66 ± 0.27	0.817 ± 0.21
O=C(O)Cc1ccccc1Nc1c(Cl)cccc1Cl.OCCN1CCCC1 [Diclofenac Epolamine]	0.882 ± 0.03	0.833 ± 0.024
